Measured values taken from patent publication US6632934.
These are yes or no findings as the source states them, for the method shown. Some binding calls cover weakened binding; strength is not graded here. For some assays here: Where a sequence is shown, tags or fusion partners need not be part of it. One block for each binder: values may come before it.

What was measured:
[1] = target: T1, human Morc (non-mutated) polypeptide (human) (UniProt Q86VD1); assay: two-hybrid screen of a random human cDNA library with human Morc as bait
T1 sequence: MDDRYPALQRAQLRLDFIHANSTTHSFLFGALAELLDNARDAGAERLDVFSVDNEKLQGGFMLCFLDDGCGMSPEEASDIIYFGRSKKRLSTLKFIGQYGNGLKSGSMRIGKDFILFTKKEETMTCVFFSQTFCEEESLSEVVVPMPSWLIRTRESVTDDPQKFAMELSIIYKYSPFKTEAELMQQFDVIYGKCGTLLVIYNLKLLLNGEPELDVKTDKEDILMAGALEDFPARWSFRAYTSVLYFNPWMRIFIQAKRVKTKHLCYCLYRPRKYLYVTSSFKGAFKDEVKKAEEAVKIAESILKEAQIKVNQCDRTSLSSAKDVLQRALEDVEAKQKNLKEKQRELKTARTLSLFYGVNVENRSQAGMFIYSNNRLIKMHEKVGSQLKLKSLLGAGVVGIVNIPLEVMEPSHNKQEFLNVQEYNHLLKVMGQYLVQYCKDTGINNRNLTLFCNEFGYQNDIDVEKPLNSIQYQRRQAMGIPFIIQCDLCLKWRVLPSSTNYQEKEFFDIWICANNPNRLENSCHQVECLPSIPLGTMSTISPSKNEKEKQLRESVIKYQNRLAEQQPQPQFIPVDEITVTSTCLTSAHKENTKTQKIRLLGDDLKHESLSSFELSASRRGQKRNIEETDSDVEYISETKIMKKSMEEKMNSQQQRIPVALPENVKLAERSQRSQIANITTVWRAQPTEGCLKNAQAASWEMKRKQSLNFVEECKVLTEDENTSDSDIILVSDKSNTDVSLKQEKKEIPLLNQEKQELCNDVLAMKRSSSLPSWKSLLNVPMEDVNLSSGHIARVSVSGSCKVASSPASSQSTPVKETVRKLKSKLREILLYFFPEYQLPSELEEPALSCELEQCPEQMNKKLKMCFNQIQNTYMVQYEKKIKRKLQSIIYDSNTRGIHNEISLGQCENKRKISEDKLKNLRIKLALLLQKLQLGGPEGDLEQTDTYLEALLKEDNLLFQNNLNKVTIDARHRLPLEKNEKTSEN

[2] = target: T2, human MORC tagged with an epitope (human) (UniProt Q86VD1); assay: co-transfection of differently epitope-tagged proteins into cells, immunofluorescence microscopy
T2 sequence: T1 sequence

binding [1]: binds
B1: human 123F2 (protein, UniProt Q9NS23-4 1-270, looked up)
chain: MGEAEAPSFEMTWSSTTSSGYCSQEDSDSELEQYFTARTSLARRPRRDQDEPVEWETPDLSQAEIEQKIKEYNAQINSNLFMSLNKDGSYTGFIKVQLKLVRPVSVPSSKKPPSLQDARRGPGRGTSVRRRTSFYLPKDAVKHLHVLSRTRAREVIEALLRKFLVVDDPRKFALFERAERHGQVYLRKLLDDEQPLRLRLLAGPSDKALSFVLKENDSGEVNWDAFSMPELHNFLRILQREEEEHLRQILQKYSYCRQKIQEALHACPLG

binding [2]: binds
B2: human 123F2 tagged with another epitope (protein, UniProt Q9NS23-4 1-270, looked up, not shown: small tags and cut ends)
chain: B1 chain
